{"source": "PubChem BioAssay AID504834", "about": "(National Center for Advancing Translational Sciences (NCATS), 2011)", "note": "Among all 320,000 compounds or so, about 22,000 (6.9%) were called active. Inconclusive results, whose numbers are uncertain, are shown with a selection of clear calls. Calls follow the shape of the dose curve; as a rule, active = well fitted inhibition curve with a large enough effect; inconclusive = small, poorly fitted or top-dose-only effect, or another doubt; inactive = no such curve, though single readings can be large or run the other way. A potency beside an inconclusive call is a rough fit, not a confirmed value. % is scaled to controls: 0 for no effect and ±100 for the full control effect; potency is read from the fitted curve at half-maximal effect.", "data": [{"test": "Primary qHTS for delayed death inhibitors of the malarial parasite plastid, 96 hour incubation", "conditions": "P. falciparum luciferase reporter growth; series mostly up to 28.7 µM; activity change, negative = inhibition: at the top concentration", "procedure,_shortened": "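P. falciparum expressing integrated firefly luciferase, in erythrocytes at 2% hematocrit, 0.05% parasitemia, incubated with compounds 96 h at 37 C, 5% CO2. Growth inhibition read as loss of luminescence; two-generation exposure targets delayed-death apicoplast inhibitors.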", "values": [{"smiles": "O=C(CN1C(=O)CSc2cc(S(=O)(=O)N3CCCCCC3)ccc21)NCCc1ccccc1", "Potency": "inconclusive: 18.5 µM [inhibitor, single point]"}, {"smiles": "O=C(CNC(=O)C1CCCCC1)NNC(=O)c1ccccc1Br", "Potency": "inconclusive: 10.4 µM [inhibitor, partial curve]"}, {"smiles": "N=c1c(-c2nc3ccccc3[nH]2)cc(C(=O)c2ccco2)nn1-c1ccccc1", "Potency": "inconclusive: 18.5 µM [inhibitor, single point]"}, {"smiles": "CCOC(=O)CC1COCCN1C(=O)c1cc(COc2ccc(F)cc2Cl)on1", "note": "(configuration not stated)", "Potency": "inconclusive: 16.5 µM [inhibitor, single point]"}, {"smiles": "CC(C)(C)c1ccc(C(=O)N2CCC(=O)N(C(COCc3ccccc3)Cc3ccccc3)CC2)cc1", "note": "(configuration not stated)", "Potency": "active: 11.7 µM"}, {"smiles": "Cc1cccc(NC(=O)C(=O)N/N=C/c2ccncc2)c1", "activity change, negative = inhibition": "inactive: 8.9%"}, {"smiles": "Cc1ccc(SCCC(=O)N/N=C/c2ccccc2O)cc1", "Potency": "inconclusive: 18.5 µM [inhibitor, single point]"}, {"smiles": "CC1CCN(CC(=O)Nc2ccc(C(=O)N3CCCCC3)cc2)CC1", "Potency": "active: 3.29 µM"}, {"smiles": "CCOC(=O)C1CCCN(C(=S)NC(=O)c2cc(Br)ccc2Cl)C1", "note": "(configuration not stated)", "activity change, negative = inhibition": "inactive: 76.7%"}, {"smiles": "Cc1nc(-c2ccc(S(=O)(=O)Nc3cccc(Cl)c3)cc2)co1", "Potency": "inconclusive: 6.57 µM [inhibitor, partial curve]"}, {"smiles": "CCCn1c2ccccc2c2nnc(SCCN3CCOCC3)nc21", "activity change, negative = inhibition": "inactive: 0.256%"}, {"smiles": "O=C(NCC1CCCO1)C1CC(=O)N(c2ccccc2)C1", "note": "(configuration not stated)", "activity change, negative = inhibition": "inactive: -17.2%"}, {"smiles": "CCNC(=S)N1CCn2cccc2C1c1ccc(F)cc1", "note": "(configuration not stated)", "Potency": "inconclusive: 10.4 µM [inhibitor, single point]"}, {"smiles": "O=C(C1CC(=O)N(c2ccc(Cl)cc2)C1)N1CCC(c2nc3ccccc3[nH]2)CC1", "note": "(configuration not stated)", "Potency": "inconclusive: 5.86 µM [inhibitor, partial curve]"}, {"smiles": "COc1ccc(/C=C2\\CCCc3c2nc2ccccc2c3C(=O)OCC(=O)c2c(N)n(C)c(=O)n(C)c2=O)cc1", "Potency": "active: 4.15 µM"}, {"smiles": "CCn1nnc2c(=O)oc3ccccc3c21", "Potency": "active: 4.15 µM"}, {"smiles": "CCOCCN(C=O)c1cccc(OC)c1", "Potency": "inconclusive: 18.5 µM [inhibitor, single point]"}, {"smiles": "COc1ccc2nc3cc(Cl)ccc3c(Nc3cc(C(C)C)c(O)cc3C)c2c1", "Potency": "active: 0.0657 µM"}, {"smiles": "C#CCOCCOCCOCCNc1nc(N2CCOCC2)nc(N2CCN(C(=O)CCCCCCCCCCNC(=O)[C@H]([C@@H](C)CC)n3cc(CCCCN=C(N)N)nn3)CC2)n1", "Potency": "active: 0.522 µM"}, {"smiles": "Cc1nc(NC(=O)CCCC(=O)Nc2nc(C)c(C)s2)sc1C", "Potency": "inconclusive: 18.5 µM [inhibitor, partial curve, poor fit]"}, {"smiles": "O=C(N/N=C/c1c(O)n(C2CCCCC2)c(=S)[nH]c1=O)c1ccccc1O", "Potency": "inconclusive: 10.4 µM [inhibitor, single point]"}, {"smiles": "CCOc1cccc(CN2CCC(N3CCC(C(=O)NCC4CCCO4)CC3)CC2)c1", "note": "(configuration not stated)", "activity change, negative = inhibition": "inactive: -24.2%"}, {"smiles": "Cc1ccc(C2=NNC(c3cccc(F)c3)S2)cc1", "note": "(configuration not stated)", "Potency": "active: 11.7 µM"}, {"smiles": "COc1ccc([N+](=O)[O-])cc1N(CC(O)CN1CCCCC1)S(=O)(=O)c1ccccc1", "note": "(configuration not stated)", "activity change, negative = inhibition": "inactive: -2.15%"}, {"smiles": "COc1ccc2nc(N3CCN(C(=O)c4ccc5ncsc5c4)CC3)sc2c1", "Potency": "inconclusive: 1.65 µM [inhibitor, full curve]"}, {"smiles": "CCCn1cc(SCC(=O)Nc2ccc3c(c2)OCO3)c2ccccc21", "Potency": "active: 10.4 µM"}, {"smiles": "S=C(NCCc1ccccc1)Nc1ccc(Br)cn1", "Potency": "active: 8.28 µM"}, {"smiles": "COc1cccc(C(=O)/C=C/c2ccc(OCC#N)c(OC)c2)c1", "Potency": "inconclusive: 11.7 µM [inhibitor, single point]"}, {"smiles": "COc1ccc(NC(=O)CCN=C2NS(=O)(=O)c3ccccc32)cc1S(=O)(=O)N(C)C", "Potency": "inconclusive: 18.5 µM [inhibitor, single point]"}, {"smiles": "Cc1ccc(-c2nnc(-c3ccc4c(c3)OCO4)o2)cc1", "activity change, negative = inhibition": "inactive: 0%"}, {"smiles": "O=C(O)c1cccc(NC(=O)c2ccccc2NC(=O)c2cccc([N+](=O)[O-])c2)c1", "Potency": "inconclusive: 18.5 µM [inhibitor, single point]"}, {"smiles": "Cc1ccccc1-n1nnnc1SCCCC(=O)c1ccc(F)cc1", "Potency": "inconclusive: 9.28 µM [inhibitor, partial curve]"}, {"smiles": "COc1cccc(NC(=O)CSc2nc3ccccc3c3nc4ccccc4n23)c1", "activity change, negative = inhibition": "inactive: 13.8%"}, {"smiles": "COCCCNC(=S)N1CCN(S(C)(=O)=O)CC1", "Potency": "inconclusive: 0.117 µM [inhibitor, full curve, poor fit]"}, {"smiles": "O=C(NCc1ccccc1)c1cc(-c2ccncc2)nc2ccc(S(=O)(=O)N3CCOCC3)cc12", "Potency": "inconclusive: 10.4 µM [inhibitor, single point]"}, {"smiles": "Cc1ccc2[nH]c(=O)c(CN(CCCN(C)C)C(=S)NCCc3ccccc3)cc2c1", "activity change, negative = inhibition": "inactive: -2.13%"}, {"smiles": "C=CCN1C(=O)c2ccc(C(=O)N3CCN(S(=O)(=O)c4cccc(Cl)c4)CC3)cc2C1=O", "Potency": "active: 13.1 µM"}, {"smiles": "CCCC(=O)Nc1nnc(SCC(=O)NCc2cccs2)s1", "Potency": "inconclusive: 3.7 µM [inhibitor, partial curve]"}, {"smiles": "Cc1c(NC(=O)/C(C#N)=C/c2cccs2)c(=O)n(-c2ccccc2)n1C", "Potency": "inconclusive: 0.0037 µM [inhibitor, full curve, poor fit]"}, {"smiles": "CC(C)(C)NC(=O)COC(=O)c1ccc(NC(=O)CC#N)cc1", "activity change, negative = inhibition": "inactive: -2.79%"}, {"smiles": "Cc1cccc(CCN2C(Nc3ccccc3)=NC[C@@H]2C)c1", "activity change, negative = inhibition": "inactive: 0%"}, {"smiles": "C=CCNC(=O)C1CC(=O)N(c2ccc(OCC(=O)N3CCCC3)cc2)C1", "note": "(configuration not stated)", "activity change, negative = inhibition": "inactive: 17.1%"}, {"smiles": "Cn1c(CCN2CCN(c3ccccn3)CC2)nc2cc(NS(=O)(=O)c3ccc(Cl)cc3)ccc21", "Potency": "active: 10.4 µM"}, {"smiles": "Cc1cccc(-n2nnnc2SCC(=O)NCCN2C(=O)CSC2=O)c1", "Potency": "inconclusive: 8.28 µM [inhibitor, partial curve]"}, {"smiles": "Cc1ccc(C(=O)CSc2nnc(-c3ccccc3)n2-c2ccccc2)o1", "Potency": "inconclusive: 18.5 µM [inhibitor, single point]"}, {"smiles": "Cn1nc(C(F)(F)F)c(-c2cccc(C(F)(F)F)c2)c1NC(=O)c1nccnc1C(=O)O", "activity change, negative = inhibition": "inactive: 7.03%"}, {"smiles": "COc1cccc(NC(=S)N(Cc2ccco2)C(C)c2ccco2)c1", "note": "(configuration not stated)", "Potency": "inconclusive: 18.5 µM [inhibitor, single point]"}, {"smiles": "CCN(CC(=O)Nc1c(F)cccc1F)C(=O)c1ccc(OCc2c(C)noc2C)cc1", "Potency": "inconclusive: 18.5 µM [inhibitor, single point]"}, {"smiles": "COc1ccc(NC(=O)c2ccccc2N2C(=O)C3C4C=CC(C5CC45)C3C2=O)c(OC)c1", "note": "(configuration not stated)", "Potency": "inconclusive: 18.5 µM [inhibitor, partial curve, poor fit]"}, {"smiles": "COc1ccc(OCC(=O)N2CCN(S(=O)(=O)c3ccccc3[N+](=O)[O-])CC2)cc1", "Potency": "inconclusive: 1.04 µM [inhibitor, partial curve, poor fit]"}, {"smiles": "CN(C)S(=O)(=O)N1CCN(c2cc(Cl)ccc2Cl)CC1", "activity change, negative = inhibition": "inactive: 23.8%"}, {"smiles": "C=C1CCN(C(CC(C)C)C(=O)OC)S(=O)(=O)c2ccccc21", "note": "(configuration not stated)", "Potency": "inconclusive: 9.28 µM [inhibitor, single point]"}, {"smiles": "Cc1ccc(Cn2nc(C)c(NC(=O)CCCn3nc([N+](=O)[O-])c(Cl)c3C)c2C)cc1", "activity change, negative = inhibition": "inactive: 2.18%"}, {"smiles": "COCCNC(=O)C1CCN(Cc2cccc(OCc3ccccc3)c2)CC1", "activity change, negative = inhibition": "inactive: -22.9%"}, {"smiles": "Nc1nonc1-n1nnc(C(=O)N/N=C/c2ccc(Br)cc2)c1CN1CCOCC1", "activity change, negative = inhibition": "inactive: 15.5%"}, {"smiles": "CCC(=O)Nc1sc2c(c1C(=O)OC)CCN(Cc1ccccc1)C2", "activity change, negative = inhibition": "inactive: -4.15%"}, {"smiles": "Oc1c(Cl)cc(Cl)c2c1NCCC2", "activity change, negative = inhibition": "inactive: 30.7%"}, {"smiles": "CN1CCN(C(=O)C2CCC(=O)N(CCc3cccc(F)c3)C2)CC1", "note": "(configuration not stated)", "Potency": "active: 9.28 µM"}, {"smiles": "Cc1noc(C)c1C(=O)NCCc1ccc(S(N)(=O)=O)cc1", "activity change, negative = inhibition": "inactive: 29.7%"}, {"smiles": "CC(C(=O)N(C)Cc1cccc(F)c1)N1CCN(S(=O)(=O)c2ccc3c(c2)OCCCO3)CC1", "note": "(configuration not stated)", "Potency": "inconclusive: 18.5 µM [inhibitor, single point]"}, {"smiles": "O=C(Cc1c(F)c(F)c(F)c(F)c1F)OC12CC3CC(C1)C(=O)C(C3)C2", "activity change, negative = inhibition": "inactive: -3.31%"}, {"smiles": "C/C=C/C(=O)OCC(=O)Nc1ccc(C)c(S(=O)(=O)N(C)C)c1", "activity change, negative = inhibition": "inactive: 1.21%"}, {"smiles": "CCOc1ccc(N2C(=O)/C(=C/c3ccccn3)SC2=S)cc1", "activity change, negative = inhibition": "inactive: 15.6%"}, {"smiles": "COC(=O)C1=C(C)NC(C)=C([N+](=O)[O-])C1c1ccccc1C(F)(F)F", "note": "(configuration not stated)", "Potency": "inconclusive: 9.28 µM [inhibitor, partial curve, poor fit]"}, {"smiles": "CC(/C=C/c1ccccc1)=N\\NC(=O)C1CC1(C)c1ccccc1", "note": "(configuration not stated)", "Potency": "inconclusive: 11.7 µM [inhibitor, partial curve, poor fit]"}, {"smiles": "CCCN1C2CCCC1CC(NC(=S)Nc1cc(C)cc(C)c1)C2", "note": "(configuration not stated)", "Potency": "inconclusive: 20.8 µM [inhibitor, partial curve, poor fit]"}, {"smiles": "COc1cccc2sc(NNC(=O)COc3ccccc3)nc12", "activity change, negative = inhibition": "inactive: -41.2% [at 1.15 µM]"}, {"smiles": "O=C(CSc1n[nH]c(-c2ccccn2)n1)Nc1ccccc1", "Potency": "inconclusive: 11.7 µM [inhibitor, partial curve, poor fit]"}, {"smiles": "Cc1ccc(S(=O)(=O)NCC(=O)N2CCc3ccccc3C2)cc1", "Potency": "inconclusive: 18.5 µM [inhibitor, single point]"}, {"smiles": "CC(=O)N1CCN(CC(=O)Nc2ccccc2Sc2ccccc2)CC1", "Potency": "inconclusive: 18.5 µM [inhibitor, single point]"}, {"smiles": "O=C(Cc1ccccc1[N+](=O)[O-])NNC(=O)Nc1ccc2c(c1)OCO2", "Potency": "inconclusive: 18.5 µM [inhibitor, single point]"}, {"smiles": "O=C(NCC(c1ccco1)N1CCc2ccccc21)C(=O)Nc1ccc(F)cc1F", "note": "(configuration not stated)", "Potency": "inconclusive: 18.5 µM [inhibitor, partial curve, poor fit]"}]}]}
